Experimental data reported in patent US12241094B2, “Phenazine degrading agents and related compositions, methods and systems for interfering with viability of bacteria” (priority 2016, dated 2025).
Some results were stated once for a whole list of compounds, not compound by compound.

experiment: PYO demethylation by purified PodA30-162 and mutants (spectrophotometric/HPLC); format: biochemical; settings: 60 nM mutant protein
Procedure: Enzyme activity and analysis. PYO demethylation by PodA30-162 was first determined by HPLC analysis as described previously (6, 9). To detect formaldehyde evolution, 150 nM protein was mixed with 50 μM PYO in 1 mL of 20 mM Tris pH 7.6 amended with 200 μL Nash reagent (2 M ammonium acetate, 50 mM acetic acid, 20 mM acetylacetone) and incubated at 55° C. until the reaction proceeded to completion (37, 38). The products were determined by HPLC using the same method as used for phenazine quantification. To monitor the formation of reduced phenazine, protein and 50 μM PYO were placed into an anaerobic chamber (Coy Laboratory Products) under an atmosphere of H2/N2 (5:95) and left overnight before allowing the reaction to proceed. To generate reduced PYO and 1-OH-PHZ, 50 μM were mixed with 1 mM sodium dithionite. The formation of reduced phenazine products was assayed visually under UV illumination (39). A BioTek Synergy 4 microplate reader (BioTek) plate reader in the anaerobic chamber was used to measure the emission spectrum of products with excitation at 250 nm. To determine the activity of PodA30-162 in the presence of glycerol, salts, or varying pH, 30 nM protein was suspended in 500 μL buffer, 40 μM PYO was mixed with 2× solution containing the buffer of interest (500 μL), and solutions were preheated to 30 C. For pH range measurements, the following buffers were used (40 mM, adjusted with KOH): acetic acid, pH 4.9; MES, pH 5.4 and 5.7; HEPES, pH 6.1; Tris, pH 6.9 and 7.5; Bicine, pH 7.8, 8.3 and 8.7; CHES, pH 9.4. To measure reaction rates, cuvettes containing the 2×PYO solution were placed in a Evolution 260Bio UV-Vis spectrophotometer (Thermo Scientific) and 500 μL of 30 nM protein was added at time 0 (15 nM protein and 20 μM PYO, final concentration). Reaction progress was monitored by measuring absorbance at 313 nm (40) every 0.5 seconds for 5 minutes. […] Kinetic parameters were calculated in Microsoft Excel using the Solver plug-in and fitting data to ideal Michaelis-Menton plots with non-linear regression of experimental data (41). For measurements of the rate of methoxy-PMS demethylation, 300 nM protein was used and methoxy-PMS loss from the reaction mixture was monitored at 500 nm wavelength. […] The stimulatory effects of flavin or 2-oxoglutarate addition was determined by adding 25 μM flavin or 2-oxoglutarate to 20 μM PYO and 15 nM PodA30-162 and monitoring the reaction. […] As phenazine methosulfate is light sensitive and spontaneously converts to PYO in the presence of light, all reactions were carried out in the dark, and activity was assessed by end point analysis by HPLC after 4 hours (9).

| Molecule | wild type activity [%] |
| --- | --- |
| H121A (protein) MTGKTKPAIIGGVAITALAAAGLGVWLFTDGRGGRSTTEPVTMTLDVKNDQVAKHDFGKPGMDVGDMDIFSDILSVDGKQVGYDGGACFFTNVTPDNPMTYCELTIHLDAGEIFARSLTPATLAPFTMAITGGTGEYANSKGELTVSGVATPDEKYELKLTK | < 10 |
| E154A (protein) MTGKTKPAIIGGVAITALAAAGLGVWLFTDGRGGRSTTEPVTMTLDVKNDQVAKHDFGKPGMDVGDMDIFSDILSVDGKQVGYDGGACFFTNVTPDNPMTYCELTIHLDAGEIFARSLTPHTLAPFTMAITGGTGEYANSKGELTVSGVATPDAKYELKLTK | < 10 |
| D68A (protein) MTGKTKPAIIGGVAITALAAAGLGVWLFTDGRGGRSTTEPVTMTLDVKNDQVAKHDFGKPGMDVGDMAIFSDILSVDGKQVGYDGGACFFTNVTPDNPMTYCELTIHLDAGEIFARSLTPHTLAPFTMAITGGTGEYANSKGELTVSGVATPDEKYELKLTK | < 10 |
| D72N (protein) MTGKTKPAIIGGVAITALAAAGLGVWLFTDGRGGRSTTEPVTMTLDVKNDQVAKHDFGKPGMDVGDMDIFSNILSVDGKQVGYDGGACFFTNVTPDNPMTYCELTIHLDAGEIFARSLTPHTLAPFTMAITGGTGEYANSKGELTVSGVATPDEKYELKLTK | < 10 |
